This is an account of results in the supplement of paper PMC12067093, “Discovery and optimisation of a covalent ligand for TRIM25 and its application to targeted protein ubiquitination” (Chemical Science, 2025).

Sequences of proteins named here, by UniProt entry; tags and fusion partners are left off. A change or cut given only in a name is not applied to a line headed by its entry.
UniProt Q14203, whole entry, looked up: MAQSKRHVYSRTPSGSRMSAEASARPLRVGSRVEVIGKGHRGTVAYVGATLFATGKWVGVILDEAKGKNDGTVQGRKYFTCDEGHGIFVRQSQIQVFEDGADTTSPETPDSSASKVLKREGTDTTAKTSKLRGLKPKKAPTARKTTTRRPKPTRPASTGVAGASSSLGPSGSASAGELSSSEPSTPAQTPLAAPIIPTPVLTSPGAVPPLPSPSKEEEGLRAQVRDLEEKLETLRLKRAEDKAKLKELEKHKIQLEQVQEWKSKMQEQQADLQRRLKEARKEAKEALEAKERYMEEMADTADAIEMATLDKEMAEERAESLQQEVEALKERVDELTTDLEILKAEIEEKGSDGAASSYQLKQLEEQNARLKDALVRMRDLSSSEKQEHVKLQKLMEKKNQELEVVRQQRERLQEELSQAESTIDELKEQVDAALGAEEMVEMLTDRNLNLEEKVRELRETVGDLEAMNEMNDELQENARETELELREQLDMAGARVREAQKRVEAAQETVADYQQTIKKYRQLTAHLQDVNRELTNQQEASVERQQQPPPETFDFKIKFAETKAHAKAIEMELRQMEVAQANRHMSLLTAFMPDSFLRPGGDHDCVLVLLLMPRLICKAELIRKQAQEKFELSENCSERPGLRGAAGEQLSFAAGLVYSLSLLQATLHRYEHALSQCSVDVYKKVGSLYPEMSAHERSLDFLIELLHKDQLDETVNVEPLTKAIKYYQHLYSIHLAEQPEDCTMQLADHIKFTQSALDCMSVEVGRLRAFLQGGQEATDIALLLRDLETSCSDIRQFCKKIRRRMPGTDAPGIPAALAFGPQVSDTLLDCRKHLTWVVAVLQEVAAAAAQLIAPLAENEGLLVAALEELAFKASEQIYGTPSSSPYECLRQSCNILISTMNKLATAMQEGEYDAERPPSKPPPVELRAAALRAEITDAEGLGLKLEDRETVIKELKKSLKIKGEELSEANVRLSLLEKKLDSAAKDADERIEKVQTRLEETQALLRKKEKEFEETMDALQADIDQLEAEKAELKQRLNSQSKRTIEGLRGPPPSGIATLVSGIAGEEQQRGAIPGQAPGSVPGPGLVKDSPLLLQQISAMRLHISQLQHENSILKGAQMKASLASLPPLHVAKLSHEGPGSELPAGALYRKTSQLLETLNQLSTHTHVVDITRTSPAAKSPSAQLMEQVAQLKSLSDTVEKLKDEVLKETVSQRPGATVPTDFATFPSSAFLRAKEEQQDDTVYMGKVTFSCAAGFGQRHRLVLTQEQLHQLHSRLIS
UniProt O60716: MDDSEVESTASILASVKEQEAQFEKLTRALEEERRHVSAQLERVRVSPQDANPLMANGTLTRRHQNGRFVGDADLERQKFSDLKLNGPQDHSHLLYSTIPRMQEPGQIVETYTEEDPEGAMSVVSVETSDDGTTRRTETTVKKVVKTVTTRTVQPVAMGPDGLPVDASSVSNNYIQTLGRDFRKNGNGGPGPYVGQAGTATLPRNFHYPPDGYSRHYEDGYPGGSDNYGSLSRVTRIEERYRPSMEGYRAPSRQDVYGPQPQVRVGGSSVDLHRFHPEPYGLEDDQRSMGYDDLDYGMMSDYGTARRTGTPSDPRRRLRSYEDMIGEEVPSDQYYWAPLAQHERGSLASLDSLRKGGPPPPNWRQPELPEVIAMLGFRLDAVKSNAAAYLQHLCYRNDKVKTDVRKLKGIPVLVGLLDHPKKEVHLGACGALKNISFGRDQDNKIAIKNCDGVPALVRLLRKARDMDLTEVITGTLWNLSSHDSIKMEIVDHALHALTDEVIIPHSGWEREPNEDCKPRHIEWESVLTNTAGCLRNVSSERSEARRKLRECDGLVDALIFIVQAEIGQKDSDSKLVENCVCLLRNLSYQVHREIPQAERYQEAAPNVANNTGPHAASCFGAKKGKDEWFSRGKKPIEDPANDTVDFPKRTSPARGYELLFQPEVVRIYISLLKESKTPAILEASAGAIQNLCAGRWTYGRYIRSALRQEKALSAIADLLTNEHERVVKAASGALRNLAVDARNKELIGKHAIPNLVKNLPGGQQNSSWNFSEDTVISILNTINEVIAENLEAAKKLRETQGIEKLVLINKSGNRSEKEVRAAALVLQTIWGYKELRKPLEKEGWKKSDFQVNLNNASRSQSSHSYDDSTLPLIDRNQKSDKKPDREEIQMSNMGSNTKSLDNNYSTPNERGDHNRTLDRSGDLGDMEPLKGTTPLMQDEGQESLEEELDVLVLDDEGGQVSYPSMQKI
UniProt Q9Y4B6: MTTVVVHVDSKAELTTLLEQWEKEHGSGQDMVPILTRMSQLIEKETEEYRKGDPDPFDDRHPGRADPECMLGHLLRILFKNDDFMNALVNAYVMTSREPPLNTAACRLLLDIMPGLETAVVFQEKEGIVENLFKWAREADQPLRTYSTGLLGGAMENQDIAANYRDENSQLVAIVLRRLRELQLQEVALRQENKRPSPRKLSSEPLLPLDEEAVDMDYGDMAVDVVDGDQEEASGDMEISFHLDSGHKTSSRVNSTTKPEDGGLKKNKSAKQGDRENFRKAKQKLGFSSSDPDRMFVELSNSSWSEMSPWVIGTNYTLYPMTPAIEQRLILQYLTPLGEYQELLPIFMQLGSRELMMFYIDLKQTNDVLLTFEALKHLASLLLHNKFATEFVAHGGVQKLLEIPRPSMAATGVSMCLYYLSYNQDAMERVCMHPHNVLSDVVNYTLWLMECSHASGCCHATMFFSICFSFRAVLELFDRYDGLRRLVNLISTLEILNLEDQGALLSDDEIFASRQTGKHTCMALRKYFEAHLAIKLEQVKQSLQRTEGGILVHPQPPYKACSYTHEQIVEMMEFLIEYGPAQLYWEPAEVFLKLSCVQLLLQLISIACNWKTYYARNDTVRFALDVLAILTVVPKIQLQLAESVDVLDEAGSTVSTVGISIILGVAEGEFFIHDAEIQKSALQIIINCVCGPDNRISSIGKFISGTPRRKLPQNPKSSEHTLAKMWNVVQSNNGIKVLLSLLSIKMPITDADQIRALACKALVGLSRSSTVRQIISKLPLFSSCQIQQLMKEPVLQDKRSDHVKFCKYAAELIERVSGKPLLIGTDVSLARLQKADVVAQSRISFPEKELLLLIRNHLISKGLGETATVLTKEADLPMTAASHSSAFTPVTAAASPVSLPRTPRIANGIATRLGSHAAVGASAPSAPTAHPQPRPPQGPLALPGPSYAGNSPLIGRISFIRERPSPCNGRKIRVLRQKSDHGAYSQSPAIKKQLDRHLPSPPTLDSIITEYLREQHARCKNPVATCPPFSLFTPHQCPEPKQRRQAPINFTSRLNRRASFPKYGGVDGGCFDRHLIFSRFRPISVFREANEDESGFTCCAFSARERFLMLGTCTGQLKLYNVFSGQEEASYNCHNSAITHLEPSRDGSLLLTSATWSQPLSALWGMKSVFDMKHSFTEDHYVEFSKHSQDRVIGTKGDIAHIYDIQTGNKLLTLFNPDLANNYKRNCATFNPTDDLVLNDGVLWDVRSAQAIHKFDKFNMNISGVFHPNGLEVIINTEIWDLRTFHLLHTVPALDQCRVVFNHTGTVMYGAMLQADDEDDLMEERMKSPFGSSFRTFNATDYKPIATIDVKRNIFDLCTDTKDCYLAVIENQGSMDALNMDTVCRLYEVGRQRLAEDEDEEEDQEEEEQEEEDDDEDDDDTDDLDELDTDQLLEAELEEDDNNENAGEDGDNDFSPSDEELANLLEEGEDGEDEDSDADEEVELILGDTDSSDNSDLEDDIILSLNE
UniProt P17812: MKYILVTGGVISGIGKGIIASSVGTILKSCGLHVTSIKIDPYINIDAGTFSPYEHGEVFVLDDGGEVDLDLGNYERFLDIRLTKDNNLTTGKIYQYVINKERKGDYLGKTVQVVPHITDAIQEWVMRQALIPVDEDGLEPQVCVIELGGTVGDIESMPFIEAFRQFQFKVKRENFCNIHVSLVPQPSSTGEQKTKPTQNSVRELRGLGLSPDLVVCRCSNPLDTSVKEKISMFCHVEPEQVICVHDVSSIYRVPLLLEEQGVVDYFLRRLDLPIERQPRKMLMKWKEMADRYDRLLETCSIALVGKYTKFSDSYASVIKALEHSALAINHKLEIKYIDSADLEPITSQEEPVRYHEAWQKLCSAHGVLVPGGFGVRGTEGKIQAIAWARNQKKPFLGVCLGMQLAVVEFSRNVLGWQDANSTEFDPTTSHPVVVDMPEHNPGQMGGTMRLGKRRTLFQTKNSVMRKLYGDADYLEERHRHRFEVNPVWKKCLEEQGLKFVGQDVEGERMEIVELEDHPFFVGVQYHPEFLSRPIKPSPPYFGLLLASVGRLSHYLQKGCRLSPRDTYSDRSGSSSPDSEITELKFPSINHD
UniProt Q9UK59: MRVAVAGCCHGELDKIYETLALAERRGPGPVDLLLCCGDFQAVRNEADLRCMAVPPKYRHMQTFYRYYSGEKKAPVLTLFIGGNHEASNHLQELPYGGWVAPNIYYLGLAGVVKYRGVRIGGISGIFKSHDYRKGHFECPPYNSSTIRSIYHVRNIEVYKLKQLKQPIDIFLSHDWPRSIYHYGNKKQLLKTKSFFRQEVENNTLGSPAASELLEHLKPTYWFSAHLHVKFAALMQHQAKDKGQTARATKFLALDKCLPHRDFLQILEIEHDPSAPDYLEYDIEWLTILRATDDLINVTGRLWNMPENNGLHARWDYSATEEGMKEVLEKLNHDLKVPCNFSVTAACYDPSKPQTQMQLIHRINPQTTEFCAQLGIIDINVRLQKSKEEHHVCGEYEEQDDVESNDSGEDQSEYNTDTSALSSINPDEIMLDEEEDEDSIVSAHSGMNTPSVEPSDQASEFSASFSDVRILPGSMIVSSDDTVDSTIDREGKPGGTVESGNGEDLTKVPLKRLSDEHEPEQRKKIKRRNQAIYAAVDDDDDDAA
UniProt Q96SD1, whole entry, looked up: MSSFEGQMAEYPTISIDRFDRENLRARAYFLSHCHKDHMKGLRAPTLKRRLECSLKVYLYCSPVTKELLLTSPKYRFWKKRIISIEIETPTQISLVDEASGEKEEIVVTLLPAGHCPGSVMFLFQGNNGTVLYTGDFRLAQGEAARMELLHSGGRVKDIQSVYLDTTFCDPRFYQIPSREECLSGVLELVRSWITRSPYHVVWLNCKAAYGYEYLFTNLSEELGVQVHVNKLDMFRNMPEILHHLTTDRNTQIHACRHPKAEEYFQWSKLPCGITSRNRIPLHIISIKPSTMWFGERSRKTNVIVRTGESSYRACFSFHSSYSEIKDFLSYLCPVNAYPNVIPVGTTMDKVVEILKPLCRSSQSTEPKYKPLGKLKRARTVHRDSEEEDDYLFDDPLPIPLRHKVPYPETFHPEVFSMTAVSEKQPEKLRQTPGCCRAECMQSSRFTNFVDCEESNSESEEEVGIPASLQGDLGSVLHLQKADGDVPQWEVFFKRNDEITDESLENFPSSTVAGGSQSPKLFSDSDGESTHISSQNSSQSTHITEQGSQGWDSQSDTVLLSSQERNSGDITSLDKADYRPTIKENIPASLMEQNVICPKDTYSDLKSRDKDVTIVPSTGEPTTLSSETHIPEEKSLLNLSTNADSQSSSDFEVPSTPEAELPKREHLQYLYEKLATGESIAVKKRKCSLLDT

Compound in this experiment: CC1Cc2ccccc2N1C(=O)C1CCCN(C1)C(=O)CCl (mixture of isomers) [TRIM25 ligand 11 (diastereomer mixture)]
Put plainly: probe-labelled cysteine peptide fold change vs DMSO (competition) (log2 fold change); higher = less target engagement (more negative = stronger competition). Conditions: THP-1, incubation time: 4 h.

The list shows a part of the results.
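Note: competitive chemoproteomic profiling in live THP-1 cells with an iodoacetamide desthiobiotin (IA-DTB) probe, comparing probe-labelled peptide intensities in compound-treated cells against DMSO-treated controls.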

Turning to “DCTN1_Q14203_1252_VTFSCAAGFGQR (UniProt Q14203)”, the “probe-labelled cysteine peptide fold change” value is 0.122 (10 µM) and -0.00591 (50 µM).

“CTNND1_O60716_618_YQEAAPNVANNTGPHAASCFGAK (UniProt O60716)”: the “probe-labelled cysteine peptide fold change” value runs as follows: (10 µM) -0.084; (50 µM) -0.137.

With “DCAF1_Q9Y4B6_1037_NPVATCPPFSLFTPHQCPEPK (UniProt Q9Y4B6)”, the “probe-labelled cysteine peptide fold change” value was -0.13 (10 µM) and -0.0666 (50 µM).

Turning to “CTPS1_P17812_216_GLGLSPDLVVCR (UniProt P17812)”, the “probe-labelled cysteine peptide fold change” value by setting is: (10 µM) 0.0351; (50 µM) 0.13.

For “CTSB_P07858_93_EQWPQCPTIK (UniProt P07858)”, the “probe-labelled cysteine peptide fold change” value is, setting by setting: (10 µM) -0.026; (50 µM) -0.172.

Take “DBR1_Q9UK59_339+347_VPCNFSVTAACYDPSKPQTQMQLIHR (UniProt Q9UK59)”: the “probe-labelled cysteine peptide fold change” value was -0.0581 (10 µM) and 0.0206 (50 µM).

Turning to “DCLRE1C_Q96SD1_359_VVEILKPLCR (UniProt Q96SD1)”, the “probe-labelled cysteine peptide fold change” value was -0.0193 (10 µM) and -0.0751 (50 µM).

With “CTSB_P07858_105_EIRDQGSCGSCWAFGAVEAISDR (UniProt P07858)”, the “probe-labelled cysteine peptide fold change” value (10 µM) was -0.361 and the “probe-labelled cysteine peptide fold change” value (50 µM) is -0.29.
